Some entries share one result that the patent states for a list of compounds.
Key:
Assay type in all cases: in vivo
[1] = tested on: Veronica persica; test: Pre-emergence herbicidal action against harmful plants; settings: application rate 320 g/ha, scored visually after 3 weeks vs untreated controls
[2] = tested on: Veronica persica; test: Post-emergence herbicidal action against harmful plants; settings: application rate 80 g/ha, scored visually after about 3 weeks vs untreated controls
[3] = tested on: Abutilon theophrasti; test: as above; settings: application rate 80 g/ha, scored visually after about 3 weeks vs untreated controls
[4] = tested on: Pharbitis purpureum; test: as above; settings: application rate 80 g/ha, scored visually after about 3 weeks vs untreated controls
[5] = tested on: Polygonum convolvulus; test: Pre-emergence herbicidal action against harmful plants; settings: application rate 320 g/ha, scored visually after 3 weeks vs untreated controls
[6] = tested on: Amaranthus retroflexus; test: Post-emergence herbicidal action against harmful plants; settings: application rate 80 g/ha, scored visually after about 3 weeks vs untreated controls
[7] = tested on: Cyperus serotinus; test: Pre-emergence herbicidal action against harmful plants; settings: application rate 320 g/ha, scored visually after 3 weeks vs untreated controls

Row | Compound | efficacy against Veronica persica (herbicidal activity in percent) [1] | efficacy against Veronica persica (herbicidal action in percent) [2] | efficacy against Abutilon theophrasti (herbicidal action in percent) [3] | efficacy against Pharbitis purpureum (herbicidal action in percent) [4] | efficacy against Polygonum convolvulus (herbicidal activity in percent) [5] | efficacy against Amaranthus retroflexus (herbicidal action in percent) [6] | efficacy against Cyperus serotinus (herbicidal activity in percent) [7]
1 | Cc1c(C(=O)Nc2nnnn2C)ccc2c1S(=O)(=O)CC=C2 [67-1] | at least 80% | at least 80% | at least 80% | at least 80% |  |  | 
2 | CC1=Cc2c(ccc(C(=O)Nc3nonc3C)c2Cl)S1(=O)=O [17-19] | at least 80% |  |  |  | at least 80% | at least 80% | 
3 | Cc1c(C(=O)Nc2nnnn2C)ccc2c1SCC=C2 [61-1] | at least 80% |  |  |  |  | at least 80% | at least 80%
4 | CC1=Cc2c(ccc(C(=O)Nc3nnnn3Cc3ccc(Cl)cc3)c2Cl)S1(=O)=O [59-51] |  |  | at least 80% | at least 80% |  |  | 
5 | CC1=Cc2c(ccc(C(=O)Nc3nonc3-n3cncn3)c2Cl)S1(=O)=O [60-115] |  |  |  |  | at least 80% |  | 

— US20150216171A1, “HERBICIDALLY ACTIVE BICYCLOARYL CARBOXYLIC ACID AMIDES” (BAYER CROPSCIENCE AG, priority 2012, published 2015)
